Results published in paper PMC7060348.
These are yes or no findings as the source states them, for the method shown. In cells and extracts the contact can be indirect. Some entries that bind do so weakly or less than the wild type. For some assays here: Where a sequence is shown, tags or fusion partners need not be part of it.

By UniProt entry, the sequences of proteins in these tests, tags left out.
UniProt Q09472: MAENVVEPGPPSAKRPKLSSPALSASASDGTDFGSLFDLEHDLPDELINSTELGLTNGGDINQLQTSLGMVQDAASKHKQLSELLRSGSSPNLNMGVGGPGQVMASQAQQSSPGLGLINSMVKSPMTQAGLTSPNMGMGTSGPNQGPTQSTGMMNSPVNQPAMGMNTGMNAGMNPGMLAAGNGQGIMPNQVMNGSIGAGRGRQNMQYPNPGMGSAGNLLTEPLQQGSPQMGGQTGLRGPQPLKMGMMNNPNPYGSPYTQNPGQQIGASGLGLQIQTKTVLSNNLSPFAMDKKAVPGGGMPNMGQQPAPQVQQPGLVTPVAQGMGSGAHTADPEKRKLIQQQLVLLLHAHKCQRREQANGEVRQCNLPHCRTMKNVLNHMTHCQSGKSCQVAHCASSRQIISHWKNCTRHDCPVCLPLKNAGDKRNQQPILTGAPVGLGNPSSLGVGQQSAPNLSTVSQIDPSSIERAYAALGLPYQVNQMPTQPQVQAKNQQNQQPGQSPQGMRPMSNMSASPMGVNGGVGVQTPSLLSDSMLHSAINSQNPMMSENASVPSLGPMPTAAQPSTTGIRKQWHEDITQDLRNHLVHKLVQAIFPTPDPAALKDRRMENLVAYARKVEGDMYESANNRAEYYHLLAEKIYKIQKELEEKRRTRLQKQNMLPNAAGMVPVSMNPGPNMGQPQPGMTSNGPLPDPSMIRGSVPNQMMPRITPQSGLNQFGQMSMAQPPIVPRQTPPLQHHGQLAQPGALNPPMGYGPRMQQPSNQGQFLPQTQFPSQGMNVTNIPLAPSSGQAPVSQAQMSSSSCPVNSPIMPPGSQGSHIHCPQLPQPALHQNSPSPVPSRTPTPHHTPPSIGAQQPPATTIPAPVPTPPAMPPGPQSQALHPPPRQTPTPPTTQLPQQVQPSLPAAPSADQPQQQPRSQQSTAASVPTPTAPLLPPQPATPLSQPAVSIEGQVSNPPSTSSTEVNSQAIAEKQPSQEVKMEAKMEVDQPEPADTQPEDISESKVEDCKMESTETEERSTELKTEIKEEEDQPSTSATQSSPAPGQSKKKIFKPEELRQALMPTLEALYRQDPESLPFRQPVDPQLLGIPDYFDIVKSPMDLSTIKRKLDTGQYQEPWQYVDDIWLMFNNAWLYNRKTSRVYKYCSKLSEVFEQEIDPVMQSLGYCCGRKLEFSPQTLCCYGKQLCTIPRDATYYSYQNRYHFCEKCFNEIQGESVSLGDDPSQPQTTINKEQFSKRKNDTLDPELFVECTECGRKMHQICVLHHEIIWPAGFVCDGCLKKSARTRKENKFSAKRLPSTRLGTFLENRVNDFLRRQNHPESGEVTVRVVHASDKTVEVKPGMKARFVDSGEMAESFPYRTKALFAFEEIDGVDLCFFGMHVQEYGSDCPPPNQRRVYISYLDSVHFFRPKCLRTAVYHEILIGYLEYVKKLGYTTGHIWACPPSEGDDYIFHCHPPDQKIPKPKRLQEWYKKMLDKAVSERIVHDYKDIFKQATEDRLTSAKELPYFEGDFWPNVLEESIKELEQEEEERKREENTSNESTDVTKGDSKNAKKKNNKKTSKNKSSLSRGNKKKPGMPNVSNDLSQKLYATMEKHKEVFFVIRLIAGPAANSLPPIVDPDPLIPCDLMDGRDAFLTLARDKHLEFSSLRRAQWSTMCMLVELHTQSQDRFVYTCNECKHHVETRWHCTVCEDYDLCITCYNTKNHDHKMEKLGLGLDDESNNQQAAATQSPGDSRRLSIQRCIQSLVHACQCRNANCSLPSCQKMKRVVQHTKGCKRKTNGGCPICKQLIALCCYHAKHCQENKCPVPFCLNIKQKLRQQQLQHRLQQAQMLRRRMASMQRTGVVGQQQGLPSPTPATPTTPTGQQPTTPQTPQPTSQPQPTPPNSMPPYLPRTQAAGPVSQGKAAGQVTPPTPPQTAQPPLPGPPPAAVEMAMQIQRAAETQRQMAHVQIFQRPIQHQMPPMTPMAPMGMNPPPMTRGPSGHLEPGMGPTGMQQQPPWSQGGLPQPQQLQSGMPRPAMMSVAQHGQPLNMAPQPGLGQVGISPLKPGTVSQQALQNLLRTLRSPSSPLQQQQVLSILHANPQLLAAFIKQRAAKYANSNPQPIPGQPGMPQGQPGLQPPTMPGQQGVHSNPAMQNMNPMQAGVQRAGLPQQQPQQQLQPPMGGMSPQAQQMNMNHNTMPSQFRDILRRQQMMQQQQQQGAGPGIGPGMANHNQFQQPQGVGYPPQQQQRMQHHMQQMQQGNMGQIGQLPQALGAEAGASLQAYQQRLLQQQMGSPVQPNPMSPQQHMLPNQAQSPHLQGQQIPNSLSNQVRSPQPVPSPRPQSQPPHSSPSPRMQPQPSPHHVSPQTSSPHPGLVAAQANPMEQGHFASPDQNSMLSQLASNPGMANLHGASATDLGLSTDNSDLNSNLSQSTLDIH

How the values were obtained:
Flag-tagged Elk1 = molecular target: T1, Flag-tagged Elk1 (UniProt P19419); assay: co-IP; exogenous Co-IP: lysates of HepG2 and Hep3B cells expressing His-tagged P300 and Flag-tagged Elk1 (or only His-tagged P300); lysis buffer 1% NP-40, 0.5% sodium deoxycholate, 0.1% SDS; IP with anti-Flag antibody overnight at 4 °C, protein A/G plus-agarose beads; blot with anti-His antibody
T1 sequence: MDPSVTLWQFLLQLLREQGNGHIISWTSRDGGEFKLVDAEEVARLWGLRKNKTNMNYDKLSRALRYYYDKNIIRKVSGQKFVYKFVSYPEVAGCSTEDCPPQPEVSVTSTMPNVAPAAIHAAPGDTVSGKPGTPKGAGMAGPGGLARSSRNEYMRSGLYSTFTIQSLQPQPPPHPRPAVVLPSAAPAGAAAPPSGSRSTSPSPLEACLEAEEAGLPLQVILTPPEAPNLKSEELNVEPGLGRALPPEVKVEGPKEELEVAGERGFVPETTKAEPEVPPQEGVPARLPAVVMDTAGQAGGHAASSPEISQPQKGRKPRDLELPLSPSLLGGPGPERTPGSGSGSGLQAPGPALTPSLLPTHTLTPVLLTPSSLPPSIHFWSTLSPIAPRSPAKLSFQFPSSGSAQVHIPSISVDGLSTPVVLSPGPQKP

[1] = molecular target: T2, Elk1 (endogenous) (human (endogenous in HepG2 and Hep3B)) (UniProt P19419); assay: co-IP; endogenous Co-IP in hepatoma cells; Input (10% total protein) as positive control, proteins precipitated by IgG as negative control; precipitating antibody not told
T2 sequence: T1 sequence

Row | Substance | binding (Flag-tagged Elk1) | binding [1]
1 | His-tagged P300 (from UniProt Q09472 1-2414) | binds | –
2 | P300 (endogenous) (from UniProt Q09472 1-2414) | – | binds
